Reference: publication PMC9010301
Results are given in words; binding and its absence hold for the method and conditions named. Some entries that bind do so weakly or less than the wild type.

Biological target: T1, Rad24 (subunit of S.c. Rad24-RFC) (S. cerevisiae) (UniProt P32641)
T1 sequence: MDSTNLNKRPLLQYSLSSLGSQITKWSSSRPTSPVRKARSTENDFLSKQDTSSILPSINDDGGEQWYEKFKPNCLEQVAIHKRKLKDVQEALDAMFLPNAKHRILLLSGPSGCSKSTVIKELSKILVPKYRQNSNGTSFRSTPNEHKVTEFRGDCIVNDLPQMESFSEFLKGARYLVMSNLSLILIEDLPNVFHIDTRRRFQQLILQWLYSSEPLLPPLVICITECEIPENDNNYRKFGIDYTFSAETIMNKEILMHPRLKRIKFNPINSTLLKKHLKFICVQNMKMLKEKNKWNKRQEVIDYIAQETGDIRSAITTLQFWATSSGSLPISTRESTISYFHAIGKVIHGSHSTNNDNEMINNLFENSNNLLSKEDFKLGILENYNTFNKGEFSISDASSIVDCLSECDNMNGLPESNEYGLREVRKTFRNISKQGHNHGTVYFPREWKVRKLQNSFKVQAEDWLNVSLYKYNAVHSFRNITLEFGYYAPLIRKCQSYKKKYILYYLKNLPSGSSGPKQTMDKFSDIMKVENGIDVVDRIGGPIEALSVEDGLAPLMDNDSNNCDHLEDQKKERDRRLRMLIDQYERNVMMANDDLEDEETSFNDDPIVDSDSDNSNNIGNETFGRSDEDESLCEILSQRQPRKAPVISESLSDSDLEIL
Assay: cryo-EM structure; purified Rad24-RFC 1.8 μM, 9–1-1 clamp 2.2 μM, double tailed DNA (5′- and 3′-recessed junctions) 2.7 μM, 0.5 mM ATPγS, 5 mM MgAcetate; ice-water bath 30 min; two conformations (clamp closed, clamp open) at 3.2 Å; both purified

B1: Rfc5 (subunit of S.c. Rad24-RFC) (protein, UniProt P38251 1-354)
chain: MSLWVDKYRPKSLNALSHNEELTNFLKSLSDQPRDLPHLLLYGPNGTGKKTRCMALLESIFGPGVYRLKIDVRQFVTASNRKLELNVVSSPYHLEITPSDMGNNDRIVIQELLKEVAQMEQVDFQDSKDGLAHRYKCVIINEANSLTKDAQAALRRTMEKYSKNIRLIMVCDSMSPIIAPIKSRCLLIRCPAPSDSEISTILSDVVTNERIQLETKDILKRIAQASNGNLRVSLLMLESMALNNELALKSSSPIIKPDWIIVIHKLTRKIVKERSVNSLIECRAVLYDLLAHCIPANIILKELTFSLLDVETLNTTNKSSIIEYSSVFDERLSLGNKAIFHLEGFIAKVMCCLD
  binding: binds
